{
  "source": "paper PMC11212238",
  "biological_target": "T1, RAB11B (human (endogenous in SH-SY5Y)) (UniProt Q15907)",
  "T1 sequence": "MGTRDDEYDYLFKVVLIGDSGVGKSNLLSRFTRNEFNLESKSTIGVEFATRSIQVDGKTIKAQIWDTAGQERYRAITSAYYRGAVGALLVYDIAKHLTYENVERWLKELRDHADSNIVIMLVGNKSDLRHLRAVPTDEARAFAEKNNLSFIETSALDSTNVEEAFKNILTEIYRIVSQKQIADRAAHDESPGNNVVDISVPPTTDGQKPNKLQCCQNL",
  "experiment": "proximity ligation; Duolink In Situ Red kit on fixed, permeabilised SH-SY5Y cells infected with EV-A71 S41 (MOI 0.1), 24 h.p.i.; uninfected cells too for CCT8 with RAB11A; pairs of mouse and rabbit primary antibodies",
  "note": "Results are given in words; binding and its absence hold for the method and conditions named. In cells and extracts the contact can be indirect. A result given as binding can be weak or reduced; the word gives no strength.",
  "data": [
    {"substance": "EV-A71 3D", "values": [
      {"measurement": "binding", "result": "binds"}
    ]}
  ]
}
